The record followed here is PMC10093586.

Chains of the proteins cited; added tags and fusions are not shown.
UniProt P05556: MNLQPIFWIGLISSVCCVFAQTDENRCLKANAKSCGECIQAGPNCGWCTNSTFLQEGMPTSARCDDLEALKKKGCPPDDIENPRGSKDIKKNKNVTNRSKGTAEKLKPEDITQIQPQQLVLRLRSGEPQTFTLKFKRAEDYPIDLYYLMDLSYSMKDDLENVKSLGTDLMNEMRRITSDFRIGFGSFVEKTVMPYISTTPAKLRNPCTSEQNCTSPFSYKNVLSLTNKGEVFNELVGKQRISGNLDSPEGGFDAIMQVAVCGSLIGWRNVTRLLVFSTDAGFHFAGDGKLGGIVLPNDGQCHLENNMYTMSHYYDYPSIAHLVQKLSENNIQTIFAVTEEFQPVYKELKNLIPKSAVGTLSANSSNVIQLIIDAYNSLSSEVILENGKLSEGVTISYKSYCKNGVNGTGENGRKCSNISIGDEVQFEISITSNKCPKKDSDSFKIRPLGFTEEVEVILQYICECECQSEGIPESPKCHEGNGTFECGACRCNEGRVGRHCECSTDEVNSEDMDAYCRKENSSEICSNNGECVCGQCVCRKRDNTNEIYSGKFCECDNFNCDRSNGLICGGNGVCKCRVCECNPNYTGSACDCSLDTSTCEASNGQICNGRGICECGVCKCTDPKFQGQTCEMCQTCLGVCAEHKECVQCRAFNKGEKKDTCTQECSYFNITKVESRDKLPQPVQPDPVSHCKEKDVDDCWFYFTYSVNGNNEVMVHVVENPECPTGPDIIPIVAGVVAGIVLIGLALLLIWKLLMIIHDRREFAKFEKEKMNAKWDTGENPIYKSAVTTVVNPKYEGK
UniProt Q12809: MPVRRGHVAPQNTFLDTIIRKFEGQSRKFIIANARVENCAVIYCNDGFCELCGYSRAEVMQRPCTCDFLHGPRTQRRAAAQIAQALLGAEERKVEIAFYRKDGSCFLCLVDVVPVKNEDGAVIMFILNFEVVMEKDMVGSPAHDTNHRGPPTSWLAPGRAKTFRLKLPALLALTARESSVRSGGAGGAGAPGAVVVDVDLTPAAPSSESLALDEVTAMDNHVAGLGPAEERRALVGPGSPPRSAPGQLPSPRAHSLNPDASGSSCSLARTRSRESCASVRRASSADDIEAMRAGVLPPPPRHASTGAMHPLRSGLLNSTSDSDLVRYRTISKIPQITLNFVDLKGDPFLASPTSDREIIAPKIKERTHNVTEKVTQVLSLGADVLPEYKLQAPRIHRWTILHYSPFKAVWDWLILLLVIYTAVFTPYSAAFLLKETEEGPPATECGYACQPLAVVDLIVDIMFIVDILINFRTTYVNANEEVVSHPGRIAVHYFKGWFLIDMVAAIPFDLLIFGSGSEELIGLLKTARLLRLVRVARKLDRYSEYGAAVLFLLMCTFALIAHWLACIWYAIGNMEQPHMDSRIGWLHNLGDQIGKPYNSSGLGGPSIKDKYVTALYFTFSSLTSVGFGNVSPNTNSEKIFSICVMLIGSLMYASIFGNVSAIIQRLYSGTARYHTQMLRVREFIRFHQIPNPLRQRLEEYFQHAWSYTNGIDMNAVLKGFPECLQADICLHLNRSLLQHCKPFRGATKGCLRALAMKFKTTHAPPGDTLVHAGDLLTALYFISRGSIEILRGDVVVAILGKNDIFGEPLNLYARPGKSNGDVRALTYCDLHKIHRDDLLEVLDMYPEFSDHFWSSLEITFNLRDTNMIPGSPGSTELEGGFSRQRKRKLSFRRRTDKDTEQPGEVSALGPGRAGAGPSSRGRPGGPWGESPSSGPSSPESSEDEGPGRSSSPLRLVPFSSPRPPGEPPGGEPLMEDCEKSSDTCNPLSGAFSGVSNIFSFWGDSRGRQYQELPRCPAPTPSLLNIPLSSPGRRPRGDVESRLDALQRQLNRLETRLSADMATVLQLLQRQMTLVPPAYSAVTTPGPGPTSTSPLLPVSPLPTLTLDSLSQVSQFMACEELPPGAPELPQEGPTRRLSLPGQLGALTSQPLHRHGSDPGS

The assay concerns the target β1 subunit of integrin receptors (β1 integrin) (human (endogenous in primary PDAC tissue)) (UniProt P05556). Description: co-IP; β1 integrin immunoprecipitated with clone TS2/16 from total lysates (0.5 mg) of primary human PDAC and corresponding normal tissue, protein A/G agarose beads, 4 °C; blot with anti-hERG1 C terminus antibody.

These are yes or no findings as the source states them, for the method shown. In cells and extracts the contact can be indirect. Some results given as binding are weak or reduced against the parent protein; the word gives no strength.

In the case of “hERG1 (human ether-á-go-go-related gene 1 K+ channel) (from UniProt Q12809 1-1159)”, the binding result was “binds”.
